# Experimental data: the supplement of paper PMC12067093, “Discovery and optimisation of a covalent ligand for TRIM25 and its application to targeted protein ubiquitination” (Chemical Science, 2025)
# Amino acid sequences for entries named in this document (tags omitted). A change or cut given only in a name is not applied to a line headed by its entry.
# UniProt Q9BXP5: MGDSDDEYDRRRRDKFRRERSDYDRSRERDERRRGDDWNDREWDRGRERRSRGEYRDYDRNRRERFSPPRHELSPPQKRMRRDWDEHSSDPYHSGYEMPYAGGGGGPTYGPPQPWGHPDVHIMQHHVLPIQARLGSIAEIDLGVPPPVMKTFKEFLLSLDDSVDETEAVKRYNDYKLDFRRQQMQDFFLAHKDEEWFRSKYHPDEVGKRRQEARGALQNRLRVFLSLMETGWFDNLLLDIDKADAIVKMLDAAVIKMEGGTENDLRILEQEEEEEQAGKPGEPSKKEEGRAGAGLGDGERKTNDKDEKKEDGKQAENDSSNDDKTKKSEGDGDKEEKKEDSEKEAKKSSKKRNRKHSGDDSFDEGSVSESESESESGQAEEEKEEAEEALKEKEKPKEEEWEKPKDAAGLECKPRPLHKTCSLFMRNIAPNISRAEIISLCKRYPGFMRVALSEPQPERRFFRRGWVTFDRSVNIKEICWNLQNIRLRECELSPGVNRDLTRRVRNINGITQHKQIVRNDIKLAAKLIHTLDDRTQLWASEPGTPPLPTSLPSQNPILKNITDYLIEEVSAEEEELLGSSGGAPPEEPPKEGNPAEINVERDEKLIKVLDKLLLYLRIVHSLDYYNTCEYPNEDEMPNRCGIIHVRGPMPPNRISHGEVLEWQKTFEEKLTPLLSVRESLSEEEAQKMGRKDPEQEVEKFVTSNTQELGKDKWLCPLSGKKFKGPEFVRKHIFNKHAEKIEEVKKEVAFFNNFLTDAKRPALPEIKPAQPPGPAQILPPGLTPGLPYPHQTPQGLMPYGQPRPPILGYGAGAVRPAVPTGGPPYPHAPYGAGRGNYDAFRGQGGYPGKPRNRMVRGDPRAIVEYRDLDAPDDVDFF
# UniProt Q8N3U4: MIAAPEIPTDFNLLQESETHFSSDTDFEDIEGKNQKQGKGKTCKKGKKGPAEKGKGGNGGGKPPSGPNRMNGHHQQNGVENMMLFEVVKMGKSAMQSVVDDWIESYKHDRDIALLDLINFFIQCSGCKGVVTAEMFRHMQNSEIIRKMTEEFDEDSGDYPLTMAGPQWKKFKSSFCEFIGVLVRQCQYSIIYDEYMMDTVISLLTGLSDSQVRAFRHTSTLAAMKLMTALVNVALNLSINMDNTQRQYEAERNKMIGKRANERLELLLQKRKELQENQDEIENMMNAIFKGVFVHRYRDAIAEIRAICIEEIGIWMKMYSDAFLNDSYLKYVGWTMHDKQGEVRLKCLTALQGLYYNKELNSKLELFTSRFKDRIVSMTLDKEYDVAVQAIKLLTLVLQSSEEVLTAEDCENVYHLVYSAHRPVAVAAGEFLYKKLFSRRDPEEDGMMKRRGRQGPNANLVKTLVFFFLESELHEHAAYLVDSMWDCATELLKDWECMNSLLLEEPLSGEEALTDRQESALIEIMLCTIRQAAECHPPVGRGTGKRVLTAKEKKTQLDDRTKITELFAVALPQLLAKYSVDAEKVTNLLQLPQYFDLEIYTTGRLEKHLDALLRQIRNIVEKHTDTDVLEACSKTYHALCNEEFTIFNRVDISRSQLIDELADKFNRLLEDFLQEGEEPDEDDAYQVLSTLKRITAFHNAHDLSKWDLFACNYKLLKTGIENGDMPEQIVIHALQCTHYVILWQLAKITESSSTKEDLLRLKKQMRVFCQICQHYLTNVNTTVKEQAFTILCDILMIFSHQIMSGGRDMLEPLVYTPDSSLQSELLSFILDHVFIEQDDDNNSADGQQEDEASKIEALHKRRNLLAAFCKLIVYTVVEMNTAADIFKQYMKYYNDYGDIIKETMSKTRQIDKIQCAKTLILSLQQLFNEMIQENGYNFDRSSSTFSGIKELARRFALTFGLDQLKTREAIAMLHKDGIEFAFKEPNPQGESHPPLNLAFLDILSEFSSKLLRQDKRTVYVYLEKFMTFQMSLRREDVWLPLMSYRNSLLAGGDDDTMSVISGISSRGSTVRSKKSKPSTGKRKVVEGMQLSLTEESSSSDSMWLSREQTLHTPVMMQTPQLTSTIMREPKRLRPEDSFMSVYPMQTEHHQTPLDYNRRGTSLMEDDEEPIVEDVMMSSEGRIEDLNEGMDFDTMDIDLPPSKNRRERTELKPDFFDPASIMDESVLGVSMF
# UniProt Q8IX01: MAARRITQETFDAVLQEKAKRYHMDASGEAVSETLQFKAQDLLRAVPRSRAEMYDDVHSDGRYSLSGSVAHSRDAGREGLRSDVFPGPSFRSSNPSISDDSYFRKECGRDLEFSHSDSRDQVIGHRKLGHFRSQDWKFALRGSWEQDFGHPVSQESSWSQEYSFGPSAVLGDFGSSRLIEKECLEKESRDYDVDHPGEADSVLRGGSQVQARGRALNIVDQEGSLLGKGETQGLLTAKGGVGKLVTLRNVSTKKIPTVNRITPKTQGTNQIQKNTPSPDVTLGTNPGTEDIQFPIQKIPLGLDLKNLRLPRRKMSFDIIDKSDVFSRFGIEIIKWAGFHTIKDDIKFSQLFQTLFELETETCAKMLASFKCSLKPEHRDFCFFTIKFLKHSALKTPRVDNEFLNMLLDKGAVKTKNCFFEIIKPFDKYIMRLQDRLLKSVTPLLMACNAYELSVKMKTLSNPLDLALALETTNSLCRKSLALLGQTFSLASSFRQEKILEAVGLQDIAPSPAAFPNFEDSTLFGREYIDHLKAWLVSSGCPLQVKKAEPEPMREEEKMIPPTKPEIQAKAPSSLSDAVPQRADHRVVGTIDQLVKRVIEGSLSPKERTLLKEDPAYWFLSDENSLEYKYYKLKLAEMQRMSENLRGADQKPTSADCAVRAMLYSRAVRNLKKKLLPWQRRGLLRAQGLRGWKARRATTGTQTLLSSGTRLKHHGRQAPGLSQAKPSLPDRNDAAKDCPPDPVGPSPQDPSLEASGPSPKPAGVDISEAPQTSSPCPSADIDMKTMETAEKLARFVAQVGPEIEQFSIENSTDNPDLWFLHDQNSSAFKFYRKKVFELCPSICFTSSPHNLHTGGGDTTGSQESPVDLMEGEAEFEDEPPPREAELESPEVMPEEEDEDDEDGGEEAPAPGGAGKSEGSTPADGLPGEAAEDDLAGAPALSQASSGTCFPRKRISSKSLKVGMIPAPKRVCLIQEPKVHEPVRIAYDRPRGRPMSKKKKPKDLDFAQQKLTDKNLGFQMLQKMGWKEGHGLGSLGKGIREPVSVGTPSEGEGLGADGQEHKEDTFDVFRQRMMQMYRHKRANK
# UniProt Q9Y3F4: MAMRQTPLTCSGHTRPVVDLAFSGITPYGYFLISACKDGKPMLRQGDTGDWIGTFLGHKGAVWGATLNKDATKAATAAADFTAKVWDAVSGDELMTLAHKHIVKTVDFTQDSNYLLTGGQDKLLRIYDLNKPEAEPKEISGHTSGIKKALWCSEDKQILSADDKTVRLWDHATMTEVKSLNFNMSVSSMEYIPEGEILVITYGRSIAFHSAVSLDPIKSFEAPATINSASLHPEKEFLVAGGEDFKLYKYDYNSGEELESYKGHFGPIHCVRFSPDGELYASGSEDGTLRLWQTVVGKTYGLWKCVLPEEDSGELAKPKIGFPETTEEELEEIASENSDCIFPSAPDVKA
# UniProt Q15527: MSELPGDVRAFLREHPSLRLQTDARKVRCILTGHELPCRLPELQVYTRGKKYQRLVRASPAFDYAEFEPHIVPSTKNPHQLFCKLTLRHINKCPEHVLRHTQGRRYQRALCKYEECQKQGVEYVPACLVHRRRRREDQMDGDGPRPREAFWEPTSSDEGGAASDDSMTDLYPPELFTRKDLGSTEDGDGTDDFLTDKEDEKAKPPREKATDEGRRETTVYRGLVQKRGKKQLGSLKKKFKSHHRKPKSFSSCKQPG
# UniProt P27105: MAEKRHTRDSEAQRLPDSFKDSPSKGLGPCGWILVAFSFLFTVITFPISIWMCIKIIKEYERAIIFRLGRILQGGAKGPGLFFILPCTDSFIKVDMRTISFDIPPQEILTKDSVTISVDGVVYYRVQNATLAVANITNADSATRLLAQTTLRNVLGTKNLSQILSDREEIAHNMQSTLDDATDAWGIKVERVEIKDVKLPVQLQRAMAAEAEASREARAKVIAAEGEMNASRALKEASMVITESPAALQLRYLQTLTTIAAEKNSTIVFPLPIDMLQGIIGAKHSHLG
# UniProt Q9P2R7: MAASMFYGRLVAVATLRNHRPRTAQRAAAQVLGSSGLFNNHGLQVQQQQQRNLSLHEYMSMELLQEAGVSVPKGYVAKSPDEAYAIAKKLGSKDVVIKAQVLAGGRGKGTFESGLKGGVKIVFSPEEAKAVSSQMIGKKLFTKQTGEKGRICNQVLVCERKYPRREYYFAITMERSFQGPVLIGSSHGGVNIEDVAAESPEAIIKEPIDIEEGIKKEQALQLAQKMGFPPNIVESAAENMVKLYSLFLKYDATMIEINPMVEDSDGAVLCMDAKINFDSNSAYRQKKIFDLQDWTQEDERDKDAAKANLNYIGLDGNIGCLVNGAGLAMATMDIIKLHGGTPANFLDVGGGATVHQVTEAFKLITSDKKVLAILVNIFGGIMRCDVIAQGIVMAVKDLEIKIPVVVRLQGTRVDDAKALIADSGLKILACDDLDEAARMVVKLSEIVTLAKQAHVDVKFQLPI
# UniProt Q8IYB3: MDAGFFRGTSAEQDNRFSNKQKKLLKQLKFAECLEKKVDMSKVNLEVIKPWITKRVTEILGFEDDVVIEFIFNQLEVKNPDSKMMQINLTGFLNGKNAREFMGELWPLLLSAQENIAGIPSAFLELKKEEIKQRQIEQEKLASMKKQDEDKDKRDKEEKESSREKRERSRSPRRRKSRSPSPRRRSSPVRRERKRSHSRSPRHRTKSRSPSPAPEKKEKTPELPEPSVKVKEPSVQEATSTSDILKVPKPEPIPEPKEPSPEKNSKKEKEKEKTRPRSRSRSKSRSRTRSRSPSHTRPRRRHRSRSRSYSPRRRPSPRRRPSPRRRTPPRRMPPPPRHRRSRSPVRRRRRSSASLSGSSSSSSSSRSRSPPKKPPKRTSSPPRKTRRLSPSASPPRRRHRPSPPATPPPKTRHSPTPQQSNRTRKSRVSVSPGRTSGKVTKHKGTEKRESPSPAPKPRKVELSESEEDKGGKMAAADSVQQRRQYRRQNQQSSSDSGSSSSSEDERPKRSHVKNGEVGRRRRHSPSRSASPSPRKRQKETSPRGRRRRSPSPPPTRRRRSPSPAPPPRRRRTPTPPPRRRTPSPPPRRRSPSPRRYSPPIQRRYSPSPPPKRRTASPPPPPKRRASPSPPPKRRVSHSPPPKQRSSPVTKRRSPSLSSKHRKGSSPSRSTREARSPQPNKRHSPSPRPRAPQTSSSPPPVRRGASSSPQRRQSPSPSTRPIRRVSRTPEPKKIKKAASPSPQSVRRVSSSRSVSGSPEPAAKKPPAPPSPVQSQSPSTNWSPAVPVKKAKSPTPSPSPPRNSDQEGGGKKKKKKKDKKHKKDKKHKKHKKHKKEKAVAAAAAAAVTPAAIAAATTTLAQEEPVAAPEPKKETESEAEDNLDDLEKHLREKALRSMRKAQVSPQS
# UniProt Q9Y5B9, whole entry, looked up: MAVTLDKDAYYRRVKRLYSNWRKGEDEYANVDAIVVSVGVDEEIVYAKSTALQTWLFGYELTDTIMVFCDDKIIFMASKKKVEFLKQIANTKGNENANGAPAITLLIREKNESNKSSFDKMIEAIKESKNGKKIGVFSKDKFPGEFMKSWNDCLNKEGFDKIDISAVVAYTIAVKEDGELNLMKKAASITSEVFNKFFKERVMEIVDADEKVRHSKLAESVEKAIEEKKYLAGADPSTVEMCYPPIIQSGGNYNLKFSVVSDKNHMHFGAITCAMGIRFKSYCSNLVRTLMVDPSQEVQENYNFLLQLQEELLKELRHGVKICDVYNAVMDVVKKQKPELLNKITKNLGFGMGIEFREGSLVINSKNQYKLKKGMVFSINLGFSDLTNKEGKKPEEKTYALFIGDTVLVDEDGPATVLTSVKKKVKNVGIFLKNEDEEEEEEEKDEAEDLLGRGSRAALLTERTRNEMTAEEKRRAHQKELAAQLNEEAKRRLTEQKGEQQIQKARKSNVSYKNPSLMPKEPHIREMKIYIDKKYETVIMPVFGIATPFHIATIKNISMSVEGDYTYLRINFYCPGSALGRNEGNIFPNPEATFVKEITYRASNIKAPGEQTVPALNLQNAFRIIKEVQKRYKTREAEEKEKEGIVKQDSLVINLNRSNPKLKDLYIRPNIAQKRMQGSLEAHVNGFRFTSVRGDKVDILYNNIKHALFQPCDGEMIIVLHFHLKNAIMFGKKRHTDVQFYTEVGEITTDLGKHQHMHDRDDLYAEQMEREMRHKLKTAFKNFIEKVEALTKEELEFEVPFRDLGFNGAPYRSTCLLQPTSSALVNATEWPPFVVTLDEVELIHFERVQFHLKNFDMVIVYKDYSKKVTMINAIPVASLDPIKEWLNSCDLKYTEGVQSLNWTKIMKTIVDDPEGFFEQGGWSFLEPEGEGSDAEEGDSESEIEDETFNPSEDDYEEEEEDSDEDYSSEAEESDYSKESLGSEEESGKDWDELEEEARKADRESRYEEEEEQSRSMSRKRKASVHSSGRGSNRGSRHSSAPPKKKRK
# The other results are listed elsewhere or left out.
# Compound: Cc1cc(ccc1-c1ccccc1)C(=O)N1CCCN(CC1)C(=O)CCl [compound 10]
# Assay: probe-labelled cysteine peptide fold change vs DMSO (competition) (log2 fold change); higher = less target engagement (more negative = stronger competition)
# Settings: THP-1, incubation time: 4 h
# 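Note: competitive profiling in live THP-1 cells: cysteine peptides tagged with an iodoacetamide desthiobiotin (IA-DTB) probe, intensity after compound treatment relative to DMSO-treated cells.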
Target,probe-labelled cysteine peptide fold change (10 µM),probe-labelled cysteine peptide fold change (50 µM)
SRRT_Q9BXP5_490_ECELSPGVNR (UniProt Q9BXP5),0.0063,0.218
STAG2_Q8N3U4_632_HTDTDVLEACSK (UniProt Q8N3U4),0.104,0.3
SUGP2_Q8IX01_417_NCFFEIIKPFDK (UniProt Q8IX01),-0.328,-1.49
STRAP_Q9Y3F4_270_GHFGPIHCVR (UniProt Q9Y3F4),0.194,0.0693
SUPT6H_Q7KZ85_1435_YYQDCSGGDRK (UniProt Q7KZ85),0.014,0.117
SURF2_Q15527_116_YEECQK (UniProt Q15527),0.109,0.0154
STOM_P27105_87_GPGLFFILPCTDSFIK (UniProt P27105),0.114,0.454
SUCLA2_Q9P2R7_430_ILACDDLDEAAR (UniProt Q9P2R7),-0.109,0.103
SYK_P43405_89+101_THASPADLCHYHSQESDGLVCLLK (UniProt P43405),-0.0638,-0.0651
SRRT_Q9BXP5_412_DAAGLECKPR (UniProt Q9BXP5),-0.171,-0.219
STXBP5_Q5T5C0_800_EAISALHFCETFTR (UniProt Q5T5C0),-0.0114,-0.0806
SRRM1_Q8IYB3_33_FAECLEK (UniProt Q8IYB3),0.124,-0.144
SUPT16H_Q9Y5B9_323_ICDVYNAVMDVVK (UniProt Q9Y5B9),0.101,0.372

# As entered above.
# STOM_P27105_87_GPGLFFILPCTDSFIK (UniProt P27105) – probe-labelled cysteine peptide fold change (50 µM): 0.454
# STAG2_Q8N3U4_632_HTDTDVLEACSK (UniProt Q8N3U4) – probe-labelled cysteine peptide fold change (10 µM): 0.104
